Literature values in US20050214389A1, “Beta-carotene enriched extract from water hyacinth eichhornia crassipes” (Council of Scientific and Industrial Research, priority 2004, published 2005).
At least one structure is not confirmed: it was looked up by name or label, or the drawing left a doubt.

Tested on: Enterobacter sp. F2
Conditions: concentrations of from 10-7 to 10-2 mol/L

N[C@@H](CC(=O)O)C(=O)O [aspartate]
chemotaxis (attraction of F2): strongly attracted
